Out of some 330,000 compounds screened, about 7,700 (2.3%) were called active. Inconclusive results, whose numbers are uncertain, are shown with a selection of clear calls. Calls follow the shape of the dose curve; as a rule, active = well fitted inhibition curve with a large enough effect; inconclusive = small, poorly fitted or top-dose-only effect, or effect the other way; inactive = flat fitted curve, though single readings scatter. Where the call is inconclusive, the potency comes from a doubtful curve fit.
Assay: qHTS screen for small molecules that inhibit ELG1-dependent DNA repair in human embryonic kidney (HEK293T) cells expressing luciferase-tagged ELG1; also: nearly all actives have a fitted effect of over 55% in size
Details: HEK293T ELG1-luciferase reporter, luminescence, 16 h, DNA damage induced by 5-fluorouridine; series mostly up to 46.1 µM
Summary of the method: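 HEK293T cells expressing luciferase-tagged ELG1 (2,000/well) received 5-Fluorouridine plus compound or DMSO for 16 hr at 37 °C. Luciferase was read by ONE-Glo luminescence after 30 min at room temperature.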
In the case of `Cc1nn(C)c(C)c1CN(C)C(=O)c1cc2nc(-c3ccco3)cc(C(F)(F)F)n2n1`, the Potency is reported as inconclusive: 29.1 µM [inhibitor, single point]. In the case of `Cc1ccnc(NC(=O)/C=C/c2cccs2)c1`, the Potency is reported as inconclusive: 1.64 µM [activator, partial curve]. For `COc1ccc(COC(=O)CNC(=O)C2CCCCC2)cc1F`, the Potency was “inactive”. In the case of `N/C(Cc1nc(-c2ccc(F)cc2)cs1)=N\O`, the Potency is reported as inconclusive: 20.6 µM [inhibitor, partial curve]. For `Cc1ccc(CNc2ccc(CNc3ncn[nH]3)cc2)cc1`, the Potency was inconclusive: 14.6 µM [activator, partial curve, poor fit]. In the case of `Cc1ccc(/C=C2/Sc3ccccc3N(CC(=O)NCCCOC(C)C)C2=O)cc1`, the Potency is reported as inconclusive: 32.6 µM [inhibitor, single point]. In the case of `O=C(Nc1ccccc1)Nc1nnc(-c2cccs2)s1`, the Potency is reported as inconclusive: 2.59 µM [activator, full curve]. For `CC(=O)c1ccc(Nc2nc(-c3cccnc3)cs2)cc1`, the Potency was inconclusive: 3.66 µM [activator, full curve]. With `Cc1ccc(C(=O)Nc2ccccc2Oc2ccccc2)cc1[N+](=O)[O-]` the Potency was “inactive”. In the case of `O=C(NCc1ccc(-c2nc3ccccc3s2)cc1)c1ccc(Br)o1`, the Potency is reported as inconclusive: 20.6 µM [activator, partial curve]. For `O=C(CC1(O)C(=O)Nc2ccccc21)c1ccc2c(c1)OCO2` (stereo not drawn), the Potency was “inactive”. In the case of `CCOC(=O)C1=C(C)c2ccccc2N(S(=O)(=O)C(F)(F)F)C1C(=O)OCC` (stereo not drawn), the Potency is reported as “inactive”. In the case of `CN(C)C1=NC[C@H](Cc2ccccc2)N1CC1CCCCC1`, the Potency is reported as “inactive”. With `CCC1Oc2ccc(C)cc2N(CC(=O)N(Cc2ccncc2)Cc2ccco2)C1=O` (stereo not drawn) the Potency was inconclusive: 29.1 µM [inhibitor, single point]. In the case of `Cn1cc(C=O)c(-c2ccc3c(c2)OCCCO3)n1`, the Potency is reported as inconclusive: 23.1 µM [activator, partial curve]. In the case of `O=C(CCNC(=O)c1ccco1)Nc1ccc(C(F)(F)F)cc1`, the Potency is reported as inconclusive: 25.9 µM [activator, single point]. For `COCCCNCCOCCOc1c(OC)cccc1OC`, the Potency was “inactive”. In the case of `CC[C@H](NC(=O)c1c(C)c(-c2ccccc2)nc2ccccc12)c1ccccc1`, the Potency is reported as inconclusive: 0.0326 µM [inhibitor, full curve, poor fit]. With `COc1cccc(-c2nnc(N(C)C(=O)c3ccno3)s2)c1` the Potency was inconclusive: 18.4 µM [activator, single point]. For `O=C(CN1CCc2ccccc2C1)Nc1cc(S(=O)(=O)N2CCOCC2)ccc1N1CCCC1`, the Potency was “inactive”. For `CC(C)Oc1ccc(/C=N/NC(=O)c2nnn(-c3nonc3N)c2CN(C)C2CCCCC2)cc1`, the Potency was inconclusive: 29.1 µM [activator, single point]. For `CN(C(=O)CSc1nc2ccccc2o1)C1CCS(=O)(=O)C1` (stereo not drawn), the Potency was inconclusive: 16.4 µM [activator, single point]. With `Clc1ccc(-c2csc3ncnc(NCCN4CCOCC4)c23)cc1` the Potency was active: 18.4 µM. With `CC(C)(C)C(=O)/C=c1\[nH]c(=O)/c(=C\c2ccc(C#N)cc2)s1` the Potency was inconclusive: 18.4 µM [inhibitor, partial curve]. In the case of `COc1c(C)cc(C(=O)C2CCCN(S(=O)(=O)N(C)C)C2)cc1C` (stereo not drawn), the Potency is reported as “inactive”. For `O=C(CSc1nnc(-c2ccccc2)n1Cc1ccco1)NCc1ccc2c(c1)OCO2`, the Potency was active: 16.4 µM. For `O=C(COc1ccc(Br)cc1Cl)NC(=O)NC1CCCC1`, the Potency was inconclusive: 6.51 µM [activator, partial curve]. With `O=C(Nc1ccc(N2CCOCC2)cc1)Nc1cnsn1` the Potency was inconclusive: 16.4 µM [activator, partial curve, poor fit]. With `CCOc1ccc(-c2cccc(NC(=O)c3cccs3)c2)nn1` the Potency was inconclusive: 13 µM [inhibitor, single point]. With `CCOc1cccc(-c2nn3c(-c4cc(C)[nH]n4)nnc3s2)c1` the Potency was inconclusive: 35.5 µM [inhibitor, single point]. In the case of `COc1ccc(O)c(C(=O)CC(=O)c2ccccc2)c1`, the Potency is reported as inconclusive: 0.58 µM [activator, partial curve]. For `CC(C)NS(=O)(=O)c1ccc(NC(=O)C(C)OC(=O)CCCOc2ccccc2)cc1` (stereo not drawn), the Potency was “inactive”. With `O=C(c1cc(-c2ccc(Cl)cc2)on1)N1CCCC1` the Potency was inconclusive: 2.59 µM [activator, full curve]. In the case of `CCN(CC)c1ccc(/C=N/Nc2nc(C)cc(C)n2)cc1`, the Potency is reported as inconclusive: 32.6 µM [inhibitor, single point]. With `CC1(C)CC(=O)C2=C(C1)OC1=C(C(=O)CC(C)(C)C1)C2c1ccc(O)cc1O` the Potency was inconclusive: 29.1 µM [inhibitor, single point]. With `Cc1cc(Cl)ccc1OCC(=O)Nc1cccnc1` the Potency was inconclusive: 20.6 µM [activator, partial curve]. With `COC(=O)c1cc(=O)n(Cc2ccc(OC)c(OC)c2)c(=Nc2ccc(F)cc2)s1` the Potency was inconclusive: 23.1 µM [inhibitor, single point]. In the case of `C[C@@H](C(=O)Nc1cccnc1)n1c(=O)[nH]c2ccccc2c1=O`, the Potency is reported as inconclusive: 5.17 µM [activator, full curve, poor fit]. In the case of `O=C(Nc1nnc(-c2ccc(Cl)cc2)o1)C1=COCCO1`, the Potency is reported as inconclusive: 16.4 µM [activator, single point]. For `CCOC(=O)C(C(=O)Nc1ccccc1)C1CCCCC1` (stereo not drawn), the Potency was “inactive”. In the case of `Cc1cccc(N2CCN(C(=O)C(Cc3ccccc3)n3cccc3)CC2)c1C` (stereo not drawn), the Potency is reported as “inactive”. With `COC(C/C=C/[C@@H](O)COCc1ccccc1)OC` the Potency was “inactive”. With `COc1ccc(C)cc1NC(=O)C1CCC(CNc2c(N3CCOCC3)c(=O)c2=O)CC1` (stereo not drawn) the Potency was inconclusive: 11.6 µM [inhibitor, partial curve, poor fit]. For `Cc1c(-n2c(SCC(=O)O)nnc2-c2ccccc2Cl)c(=O)n(-c2ccccc2)n1C`, the Potency was “inactive”. With `O=C(NCCc1c[nH]c2ccccc12)c1c(Cl)nc2sccn12` the Potency was inconclusive: 11.6 µM [activator, partial curve]. In the case of `O=[N+]([O-])c1ccc(-n2cnc3ccccc32)c([N+](=O)[O-])c1`, the Potency is reported as active: 23.1 µM. With `O=C(CNC(=O)c1ccccc1Br)N/N=C/c1ccccc1O` the Potency was inconclusive: 29.1 µM [inhibitor, single point]. In the case of `CCOC(=O)c1nc2ccccc2c(=O)[nH]1`, the Potency is reported as inconclusive: 29.1 µM [activator, single point]. For `Nc1cccc(C(=O)Nc2ccco2)c1`, the Potency was inconclusive: 25.1 µM [activator, partial curve, poor fit]. In the case of `CCCCCC(=O)NC(=S)NNC(=O)CC`, the Potency is reported as “inactive”. With `COc1cccc(/C=C/C(=O)Nc2ccc3nc4n(c(=O)c3c2)CCCC4)c1OC` the Potency was inconclusive: 29.1 µM [inhibitor, single point]. For `NC(=O)c1cccc(NC(=O)Nc2ccc(Cl)cc2)c1`, the Potency was “inactive”. With `CC1=CC(C)=Nc2ccccc2N1` the Potency was inconclusive: 3.26 µM [activator, single point]. With `O=C(Nc1ccccc1N1CCOCC1)c1ccccc1NS(=O)(=O)c1ccc(F)c(F)c1` the Potency was active: 20.6 µM. With `Cc1ccc(-n2c(C)cc(/C=N/NC(=O)c3ccncc3)c2C)cc1` the Potency was “inactive”. With `Cc1nnc(NC(=O)c2sc3ccccc3c2Cl)s1` the Potency was inconclusive: 1.84 µM [activator, partial curve]. With `COc1ccc2c(c1)cc1c(=O)n(CC(=O)NCCCN3CCOCC3)nc(C)n12` the Potency was inconclusive: 29.1 µM [activator, single point]. For `O=C(Cn1c(=O)[nH]c2sc3c(c2c1=O)CCCC3)NCC1CCCO1` (stereo not drawn), the Potency was “inactive”. With `CC(NC(=O)c1cc(COc2ccc3ncccc3c2)on1)c1ccc(F)cc1` (stereo not drawn) the Potency was inconclusive: 2.91 µM [inhibitor, single point]. With `COc1cc2sc(NC(=O)c3ccco3)nc2cc1Cl` the Potency was inconclusive: 1.46 µM [activator, full curve]. For `CC(C)(C)CC(C)(C)c1ccc(O)c(CN2CCN(CCC#N)CC2)c1`, the Potency was “inactive”. With `Cc1cc(C=O)c(C)n1-c1ccc(N2CCOCC2)cc1` the Potency was “inactive”. For `O=C1c2ccccc2C(=O)N1c1ccc(Cl)cc1`, the Potency was inconclusive: 23.1 µM [activator, single point]. In the case of `O=C(CSc1ccc(-c2ccccn2)nn1)N1CCCCC1`, the Potency is reported as inconclusive: 18.3 µM [activator, single point]. In the case of `Clc1ccccc1Cc1noc(CN2CCCCC2CCc2ccccn2)n1` (stereo not drawn), the Potency is reported as inconclusive: 16.4 µM [inhibitor, single point]. For `Cc1cc(C(=O)COC(=O)c2ccc(Cl)c(S(N)(=O)=O)c2)c(C)n1CC1CCCO1` (stereo not drawn), the Potency was inconclusive: 0.73 µM [activator, full curve]. For `CCN1CCN(C(C)C(=O)NC2CCCCC2)CC1` (stereo not drawn), the Potency was “inactive”. In the case of `COc1cc(OC)cc(C(=O)NC2CCCN(Cc3ccc(Cl)cc3)C2)c1` (stereo not drawn), the Potency is reported as inconclusive: 29.1 µM [inhibitor, single point]. For `COc1ccccc1CN(C)C(C)C(=O)Nc1cccc(C(C)=O)c1` (stereo not drawn), the Potency was inconclusive: 23.1 µM [inhibitor, single point]. With `O=C(Nc1nnc(SCC(=O)N2CCCc3ccccc32)s1)c1ccc2ccccc2c1` the Potency was inconclusive: 3.66 µM [activator, full curve]. In the case of `COc1ccc(/C=C2/CCOC2=O)cc1`, the Potency is reported as inconclusive: 18.4 µM [activator, partial curve]. With `CCCCN(CC)C(=O)/C=C/c1cccc([N+](=O)[O-])c1` the Potency was “inactive”. In the case of `Fc1cccc2sc(Nc3nnc(-c4ccco4)o3)nc12`, the Potency is reported as inconclusive: 2.91 µM [activator, partial curve].

— PubChem BioAssay AID504467 (National Center for Advancing Translational Sciences (NCATS), 2011)
Potency is read from the fitted curve at half-maximal effect.
